In patent US20160186156A1:
Results are given in words; binding and its absence hold for the method and conditions named. Some entries that bind do so weakly or less than the wild type. For some assays here: Where a sequence is shown, tags or fusion partners need not be part of it. Each block holds one binder with its values, some of them ahead of it.

Tests used:
[1] = target: T1, endoglucanase Cel8A from C. thermocellum fused to a dockerin module of ScaA from B. cellulosolvens (C. thermocellum (catalytic module); B. cellulosolvens (dockerin)); assay: affinity-based ELISA; enzyme coated on the plate, CBM-cohesin at 0.1-1000 ng/ul, detected with anti-CBM antibody
T1 sequence: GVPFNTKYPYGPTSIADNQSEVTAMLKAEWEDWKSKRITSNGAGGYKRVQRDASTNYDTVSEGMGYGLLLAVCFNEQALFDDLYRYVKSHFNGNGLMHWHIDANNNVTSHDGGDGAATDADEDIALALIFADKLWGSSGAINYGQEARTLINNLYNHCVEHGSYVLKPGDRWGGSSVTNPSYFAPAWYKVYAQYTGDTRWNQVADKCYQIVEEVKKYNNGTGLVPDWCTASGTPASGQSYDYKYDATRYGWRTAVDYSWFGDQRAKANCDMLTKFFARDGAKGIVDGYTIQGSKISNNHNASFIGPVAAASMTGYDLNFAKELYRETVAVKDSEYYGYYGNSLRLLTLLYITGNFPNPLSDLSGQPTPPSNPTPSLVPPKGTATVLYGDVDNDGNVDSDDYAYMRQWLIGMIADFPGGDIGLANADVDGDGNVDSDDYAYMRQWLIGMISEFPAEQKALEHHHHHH

[2] = target: processive endoglucanase Cel9K from C. thermocellum fused to a dockerin module of ScaB from A. cellulolyticus; assay: as above

- binding [1]: binds
B1: CBM-Coh-Bc B3 (protein)
chain: ANTPVSGNLKVEFYNSNPSDTTNSINPQFKVTNTGSSAIDLSKLTLRYYYTVDGQKDQTFWCDHAAIIGSNGSYNGITSNVKGTFVKMSSSTNNADTYLEISFTGGTLEPGAHVQIQGRFAKNDWSNYTQSNDYSFKSASQFVEWDQVTAYLNGVLVWGKEPGGSSSPGNKMKIQIGDVKANQGDTVIVPITFNEVPVMGVNNCNFTLAYDKNIMEFISADAGDIVTLPMANYSYNMPSDGLVKFLYNDQAQGAMSIKEDGTFANVKFKIKQSAAFGKYSVGIKAIGSISALSNSKLIPIESIFKDGSITVTN

- binding [2]: binds
B2: CBM-CohAc C3 (protein)
chain: ANTPVSGNLKVEFYNSNPSDTTNSINPQFKVTNTGSSAIDLSKLTLRYYYTVDGQKDQTFWCDHAAIIGSNGSYNGITSNVKGTFVKMSSSTNNADTYLEISFTGGTLEPGAHVQIQGRFAKNDWSNYTQSNDYSFKSASQFVEWDQVTAYLNGVLVWGKEPGGSGSDLQVDIGSTSGKAGSVVSVPITFTNVPKSGIYALSFRTNFDPQKVTVASIDAGSLIENASDFTTYYNNENGFASMTFEAPVDRARIIDSDGVFATINFKVSDSAKVGELYNITTNSAYTSFYYSGTDEIKNVVYNDGKIEVIAS
